Source: the supplement of paper PMC6411743
± gives the standard deviation of the averaged measurements. The list shows a part of the results.

Sequences of proteins named here, by UniProt entry; tags and fusion partners are left off. A change or cut given only in a name is not applied to a line headed by its entry.
UniProt O95260: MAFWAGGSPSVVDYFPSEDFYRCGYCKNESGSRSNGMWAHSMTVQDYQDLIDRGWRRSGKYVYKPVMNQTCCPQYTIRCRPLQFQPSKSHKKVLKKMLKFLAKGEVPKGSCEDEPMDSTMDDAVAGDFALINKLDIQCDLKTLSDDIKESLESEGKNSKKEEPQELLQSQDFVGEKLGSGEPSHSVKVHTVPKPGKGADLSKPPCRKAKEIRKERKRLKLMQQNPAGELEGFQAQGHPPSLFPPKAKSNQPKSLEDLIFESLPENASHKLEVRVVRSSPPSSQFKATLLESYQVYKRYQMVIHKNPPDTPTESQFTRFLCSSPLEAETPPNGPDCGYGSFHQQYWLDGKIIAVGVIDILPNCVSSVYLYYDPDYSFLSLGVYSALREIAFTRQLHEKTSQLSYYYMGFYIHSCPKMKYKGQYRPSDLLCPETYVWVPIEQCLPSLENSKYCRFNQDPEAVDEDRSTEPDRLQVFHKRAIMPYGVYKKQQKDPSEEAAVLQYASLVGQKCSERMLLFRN
UniProt P68400, whole entry, looked up: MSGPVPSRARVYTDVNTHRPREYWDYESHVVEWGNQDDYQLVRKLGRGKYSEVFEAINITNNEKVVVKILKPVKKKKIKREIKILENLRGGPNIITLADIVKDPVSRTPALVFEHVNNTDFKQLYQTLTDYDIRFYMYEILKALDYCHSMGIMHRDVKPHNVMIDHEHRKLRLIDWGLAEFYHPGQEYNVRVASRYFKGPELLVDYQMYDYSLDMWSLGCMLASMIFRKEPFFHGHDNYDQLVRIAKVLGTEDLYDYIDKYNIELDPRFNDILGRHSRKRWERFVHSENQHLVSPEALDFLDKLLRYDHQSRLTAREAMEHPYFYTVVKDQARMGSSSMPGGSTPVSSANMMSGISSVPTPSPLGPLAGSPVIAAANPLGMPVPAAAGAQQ
UniProt Q8N3I7: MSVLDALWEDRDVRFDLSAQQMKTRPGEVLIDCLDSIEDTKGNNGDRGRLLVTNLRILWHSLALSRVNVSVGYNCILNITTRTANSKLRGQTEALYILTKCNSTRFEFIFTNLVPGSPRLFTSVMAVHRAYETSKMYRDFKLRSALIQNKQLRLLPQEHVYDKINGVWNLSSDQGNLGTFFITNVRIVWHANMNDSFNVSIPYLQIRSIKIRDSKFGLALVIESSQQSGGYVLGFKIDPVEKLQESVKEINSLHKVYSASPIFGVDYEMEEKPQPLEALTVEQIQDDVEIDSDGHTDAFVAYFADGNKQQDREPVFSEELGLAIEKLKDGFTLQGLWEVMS
UniProt Q9NZD2: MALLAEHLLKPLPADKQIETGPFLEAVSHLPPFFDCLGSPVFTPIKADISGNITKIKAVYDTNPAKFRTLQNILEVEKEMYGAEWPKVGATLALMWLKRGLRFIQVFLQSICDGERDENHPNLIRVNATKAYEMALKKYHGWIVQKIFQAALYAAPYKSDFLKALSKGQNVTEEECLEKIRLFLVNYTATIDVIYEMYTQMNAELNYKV
UniProt Q14493, whole entry, looked up: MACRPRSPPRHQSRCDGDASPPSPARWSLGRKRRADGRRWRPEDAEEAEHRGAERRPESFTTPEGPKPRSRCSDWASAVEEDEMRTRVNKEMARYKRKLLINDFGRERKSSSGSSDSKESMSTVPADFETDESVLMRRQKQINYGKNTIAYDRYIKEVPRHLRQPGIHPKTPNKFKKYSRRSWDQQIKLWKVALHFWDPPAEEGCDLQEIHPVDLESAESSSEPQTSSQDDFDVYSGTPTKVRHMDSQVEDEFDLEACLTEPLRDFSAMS
UniProt P28290: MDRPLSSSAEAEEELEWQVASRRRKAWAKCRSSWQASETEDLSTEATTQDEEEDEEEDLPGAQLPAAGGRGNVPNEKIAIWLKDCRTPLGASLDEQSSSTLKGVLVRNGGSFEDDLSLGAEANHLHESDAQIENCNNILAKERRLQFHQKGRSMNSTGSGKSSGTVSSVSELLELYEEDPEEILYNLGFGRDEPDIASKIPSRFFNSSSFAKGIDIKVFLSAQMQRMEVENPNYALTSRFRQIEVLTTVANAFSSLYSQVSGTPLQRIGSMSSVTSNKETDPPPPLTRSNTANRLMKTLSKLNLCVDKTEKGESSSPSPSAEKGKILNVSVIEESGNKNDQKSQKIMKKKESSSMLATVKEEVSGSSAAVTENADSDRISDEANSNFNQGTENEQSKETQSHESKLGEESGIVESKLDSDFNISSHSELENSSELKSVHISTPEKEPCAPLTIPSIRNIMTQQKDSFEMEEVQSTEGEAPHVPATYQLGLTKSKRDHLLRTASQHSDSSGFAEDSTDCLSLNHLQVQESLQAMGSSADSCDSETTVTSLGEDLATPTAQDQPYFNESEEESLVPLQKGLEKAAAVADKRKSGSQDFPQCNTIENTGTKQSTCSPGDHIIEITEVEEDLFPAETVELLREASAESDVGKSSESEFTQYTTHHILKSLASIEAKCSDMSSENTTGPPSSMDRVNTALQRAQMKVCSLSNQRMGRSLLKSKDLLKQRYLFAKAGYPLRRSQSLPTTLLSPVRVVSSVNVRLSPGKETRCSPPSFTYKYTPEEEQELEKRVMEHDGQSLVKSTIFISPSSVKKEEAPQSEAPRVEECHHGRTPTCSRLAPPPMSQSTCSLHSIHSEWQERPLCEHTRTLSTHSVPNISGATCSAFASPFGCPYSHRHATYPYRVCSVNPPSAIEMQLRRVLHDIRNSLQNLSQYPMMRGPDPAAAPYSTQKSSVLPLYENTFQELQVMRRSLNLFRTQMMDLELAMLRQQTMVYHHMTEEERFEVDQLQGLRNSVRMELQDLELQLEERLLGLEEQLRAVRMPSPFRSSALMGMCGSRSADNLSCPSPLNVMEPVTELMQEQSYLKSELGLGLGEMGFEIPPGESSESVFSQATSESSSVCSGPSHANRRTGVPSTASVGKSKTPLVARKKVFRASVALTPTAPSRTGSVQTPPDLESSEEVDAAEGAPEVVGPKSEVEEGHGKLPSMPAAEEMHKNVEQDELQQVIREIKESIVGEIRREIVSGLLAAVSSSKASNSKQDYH
UniProt Q15631: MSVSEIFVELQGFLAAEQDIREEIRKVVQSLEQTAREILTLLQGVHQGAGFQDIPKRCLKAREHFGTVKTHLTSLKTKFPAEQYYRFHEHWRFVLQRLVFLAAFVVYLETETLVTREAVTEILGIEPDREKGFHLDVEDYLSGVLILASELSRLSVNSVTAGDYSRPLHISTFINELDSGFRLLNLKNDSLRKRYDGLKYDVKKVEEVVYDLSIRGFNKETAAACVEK
UniProt Q5HYJ3: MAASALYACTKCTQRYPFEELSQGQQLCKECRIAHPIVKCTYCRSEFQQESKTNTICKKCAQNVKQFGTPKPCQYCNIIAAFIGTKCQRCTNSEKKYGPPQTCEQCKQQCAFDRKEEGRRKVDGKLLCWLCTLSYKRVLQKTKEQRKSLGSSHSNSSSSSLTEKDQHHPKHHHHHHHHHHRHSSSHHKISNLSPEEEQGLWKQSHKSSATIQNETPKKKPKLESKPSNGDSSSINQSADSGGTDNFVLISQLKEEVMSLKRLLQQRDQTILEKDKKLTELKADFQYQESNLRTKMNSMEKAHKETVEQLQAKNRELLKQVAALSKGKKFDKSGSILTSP
UniProt Q6IAA8, whole entry: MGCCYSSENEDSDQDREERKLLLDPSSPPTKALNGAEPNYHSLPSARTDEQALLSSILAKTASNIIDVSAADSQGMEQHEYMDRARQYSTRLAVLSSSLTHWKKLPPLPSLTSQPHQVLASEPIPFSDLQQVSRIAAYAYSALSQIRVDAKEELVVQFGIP
UniProt Q16342: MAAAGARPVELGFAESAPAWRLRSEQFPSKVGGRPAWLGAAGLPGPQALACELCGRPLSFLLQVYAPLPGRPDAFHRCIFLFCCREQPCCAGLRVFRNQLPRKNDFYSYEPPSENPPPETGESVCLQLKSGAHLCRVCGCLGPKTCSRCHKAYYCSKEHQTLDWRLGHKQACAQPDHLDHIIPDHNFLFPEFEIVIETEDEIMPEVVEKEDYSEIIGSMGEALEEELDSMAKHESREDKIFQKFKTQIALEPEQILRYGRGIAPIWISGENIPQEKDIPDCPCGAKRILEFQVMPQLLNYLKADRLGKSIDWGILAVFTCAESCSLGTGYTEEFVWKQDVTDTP
UniProt Q9Y6M9, whole entry: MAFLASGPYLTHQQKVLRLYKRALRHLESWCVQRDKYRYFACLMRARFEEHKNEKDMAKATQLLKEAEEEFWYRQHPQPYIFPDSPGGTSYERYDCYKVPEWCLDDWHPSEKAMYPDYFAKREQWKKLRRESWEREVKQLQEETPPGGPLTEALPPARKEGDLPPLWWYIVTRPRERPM
UniProt Q13586, whole entry: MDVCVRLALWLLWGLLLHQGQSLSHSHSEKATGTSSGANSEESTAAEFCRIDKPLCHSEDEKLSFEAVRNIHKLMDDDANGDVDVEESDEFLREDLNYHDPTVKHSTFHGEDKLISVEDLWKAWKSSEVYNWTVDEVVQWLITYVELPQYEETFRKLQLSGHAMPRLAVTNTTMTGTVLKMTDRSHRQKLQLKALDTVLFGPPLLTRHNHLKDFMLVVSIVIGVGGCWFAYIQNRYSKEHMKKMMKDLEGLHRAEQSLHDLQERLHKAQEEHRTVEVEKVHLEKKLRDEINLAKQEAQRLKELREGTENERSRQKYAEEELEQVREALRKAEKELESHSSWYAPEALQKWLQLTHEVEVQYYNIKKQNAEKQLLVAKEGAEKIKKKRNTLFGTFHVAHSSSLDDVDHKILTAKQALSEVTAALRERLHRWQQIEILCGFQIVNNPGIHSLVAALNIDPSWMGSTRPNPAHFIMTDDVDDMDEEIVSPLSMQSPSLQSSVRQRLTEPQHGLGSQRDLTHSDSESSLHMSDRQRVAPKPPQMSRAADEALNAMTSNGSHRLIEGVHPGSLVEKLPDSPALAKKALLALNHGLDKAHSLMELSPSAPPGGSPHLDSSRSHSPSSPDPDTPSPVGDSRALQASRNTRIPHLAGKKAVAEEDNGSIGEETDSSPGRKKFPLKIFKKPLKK
UniProt Q9UI10, whole entry: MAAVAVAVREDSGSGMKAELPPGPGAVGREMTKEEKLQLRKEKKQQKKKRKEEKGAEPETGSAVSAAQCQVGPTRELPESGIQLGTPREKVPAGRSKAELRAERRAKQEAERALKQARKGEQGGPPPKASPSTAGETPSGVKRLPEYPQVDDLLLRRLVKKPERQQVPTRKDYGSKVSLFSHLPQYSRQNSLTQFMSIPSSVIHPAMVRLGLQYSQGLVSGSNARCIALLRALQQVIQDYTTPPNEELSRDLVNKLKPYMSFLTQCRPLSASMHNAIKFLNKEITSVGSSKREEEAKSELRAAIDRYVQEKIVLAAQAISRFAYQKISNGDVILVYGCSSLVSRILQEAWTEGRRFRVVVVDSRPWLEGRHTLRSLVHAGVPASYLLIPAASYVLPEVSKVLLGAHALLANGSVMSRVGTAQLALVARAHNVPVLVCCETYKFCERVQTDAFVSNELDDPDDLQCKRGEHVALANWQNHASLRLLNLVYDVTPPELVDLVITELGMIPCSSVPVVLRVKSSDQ
UniProt P33121: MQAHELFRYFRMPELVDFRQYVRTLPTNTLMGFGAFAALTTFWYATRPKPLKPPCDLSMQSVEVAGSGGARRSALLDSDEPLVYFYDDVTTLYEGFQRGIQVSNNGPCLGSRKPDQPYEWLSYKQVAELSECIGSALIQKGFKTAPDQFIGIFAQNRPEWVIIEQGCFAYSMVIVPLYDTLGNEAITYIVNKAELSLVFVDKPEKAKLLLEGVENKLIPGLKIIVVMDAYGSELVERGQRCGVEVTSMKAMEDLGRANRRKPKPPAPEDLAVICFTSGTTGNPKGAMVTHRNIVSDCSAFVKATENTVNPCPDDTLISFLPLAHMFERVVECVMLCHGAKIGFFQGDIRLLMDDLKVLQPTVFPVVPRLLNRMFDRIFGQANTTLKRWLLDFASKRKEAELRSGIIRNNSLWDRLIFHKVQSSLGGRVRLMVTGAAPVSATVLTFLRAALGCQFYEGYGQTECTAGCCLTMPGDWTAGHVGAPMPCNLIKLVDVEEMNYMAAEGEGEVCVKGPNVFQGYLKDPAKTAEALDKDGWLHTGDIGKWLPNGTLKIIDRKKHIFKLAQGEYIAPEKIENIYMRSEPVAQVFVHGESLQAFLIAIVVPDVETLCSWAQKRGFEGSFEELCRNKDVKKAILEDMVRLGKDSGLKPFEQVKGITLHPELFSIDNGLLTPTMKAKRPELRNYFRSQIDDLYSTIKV

Compound: Nc1nc2c(ncn2[C@@H]2O[C@H](COP(=O)(O)OP(=O)(O)OP(=O)(O)O)[C@@H](O)[C@H]2O)c(=O)[nH]1 [guanosine triphosphate]
Experiment: NP40-soluble protein abundance relative to vehicle (solubility fold change) (ratio); higher = more soluble protein in presence of GTP
Method in brief: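 Across three independent experiments, values are fold changes against the detergent-processed vehicle for each replicate, based on vsn-normalised intensities. The samples were Jurkat crude lysate treated with eight concentrations (0.1 to 10 mM) for 10 min at room temperature and then 3 min at 37 °C. Lysate was solubilised with 0.8% NP40 and benzonase, ultracentrifuged, and the supernatant analysed by TMT-labelled LC-MS/MS.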

Target: F5GXE4 and related entries (UniProt O95260)
- NP40-soluble protein abundance (concentration: 0.1mM): 0.995 ± 0.01
- NP40-soluble protein abundance (concentration: 0.5mM): 1.01 ± 0.012
- NP40-soluble protein abundance (concentration: 1mM): 0.963 ± 0.028
- NP40-soluble protein abundance (concentration: 2mM): 0.935 ± 0.039
- NP40-soluble protein abundance (concentration: 4mM): 0.977 ± 0.11
- NP40-soluble protein abundance (concentration: 6mM): 0.97 ± 0.049
- NP40-soluble protein abundance (concentration: 8mM): 0.963 ± 0.025
- NP40-soluble protein abundance (concentration: 10mM): 0.964 ± 0.041

Target: E7EU96 and related entries (UniProt P68400)
- NP40-soluble protein abundance (concentration: 0.1mM): 1 ± 0.038
- NP40-soluble protein abundance (concentration: 0.5mM): 1.05 ± 0.05
- NP40-soluble protein abundance (concentration: 1mM): 0.969 ± 0.036
- NP40-soluble protein abundance (concentration: 2mM): 0.98 ± 0.031
- NP40-soluble protein abundance (concentration: 4mM): 1.01 ± 0.038
- NP40-soluble protein abundance (concentration: 6mM): 1.01 ± 0.056
- NP40-soluble protein abundance (concentration: 8mM): 1.01 ± 0.043
- NP40-soluble protein abundance (concentration: 10mM): 0.987 ± 0.032

Target: E9PBE3 and related entries (UniProt Q8N3I7+E9PBE3)
- NP40-soluble protein abundance (concentration: 0.1mM): 1.25 ± 0.36
- NP40-soluble protein abundance (concentration: 0.5mM): 1.15 ± 0.31
- NP40-soluble protein abundance (concentration: 1mM): 1.38 ± 0.44
- NP40-soluble protein abundance (concentration: 2mM): 1.08 ± 0.19
- NP40-soluble protein abundance (concentration: 4mM): 1.02 ± 0.33
- NP40-soluble protein abundance (concentration: 6mM): 1.09 ± 0.29
- NP40-soluble protein abundance (concentration: 8mM): 1.4 ± 0.44
- NP40-soluble protein abundance (concentration: 10mM): 1.14 ± 0.19

Target: E9PS74 and related entries (UniProt Q8NBI5)
- NP40-soluble protein abundance (concentration: 0.1mM): 1.06 ± 0.034
- NP40-soluble protein abundance (concentration: 0.5mM): 0.986 ± 0.079
- NP40-soluble protein abundance (concentration: 1mM): 0.986 ± 0.083
- NP40-soluble protein abundance (concentration: 2mM): 0.917 ± 0.095
- NP40-soluble protein abundance (concentration: 4mM): 0.993 ± 0.1
- NP40-soluble protein abundance (concentration: 6mM): 0.941 ± 0.054
- NP40-soluble protein abundance (concentration: 8mM): 1.03 ± 0.039
- NP40-soluble protein abundance (concentration: 10mM): 0.865 ± 0.056

Target: F5H0U5 and related entries (UniProt Q9NZD2)
- NP40-soluble protein abundance (concentration: 0.1mM): 0.786 ± 0.12
- NP40-soluble protein abundance (concentration: 0.5mM): 0.74 ± 0.092
- NP40-soluble protein abundance (concentration: 1mM): 0.92 ± 0.13
- NP40-soluble protein abundance (concentration: 2mM): 0.929 ± 0.095
- NP40-soluble protein abundance (concentration: 4mM): 0.921 ± 0.082
- NP40-soluble protein abundance (concentration: 6mM): 0.888 ± 0.056
- NP40-soluble protein abundance (concentration: 8mM): 0.75 ± 0.16
- NP40-soluble protein abundance (concentration: 10mM): 0.939 ± 0.14

Target: F5GWT4 and related entries (UniProt Q9H4A3)
- NP40-soluble protein abundance (concentration: 0.1mM): 0.963 ± 0.058
- NP40-soluble protein abundance (concentration: 0.5mM): 0.99 ± 0.079
- NP40-soluble protein abundance (concentration: 1mM): 1 ± 0.081
- NP40-soluble protein abundance (concentration: 2mM): 0.96 ± 0.07
- NP40-soluble protein abundance (concentration: 4mM): 0.973 ± 0.061
- NP40-soluble protein abundance (concentration: 6mM): 0.978 ± 0.066
- NP40-soluble protein abundance (concentration: 8mM): 0.999 ± 0.074
- NP40-soluble protein abundance (concentration: 10mM): 0.994 ± 0.082

Target: F8W8D3 and related entries (UniProt Q14493)
- NP40-soluble protein abundance (concentration: 0.1mM): 0.949 ± 0.05
- NP40-soluble protein abundance (concentration: 0.5mM): 0.911 ± 0.012
- NP40-soluble protein abundance (concentration: 1mM): 1.01 ± 0.02
- NP40-soluble protein abundance (concentration: 2mM): 0.968 ± 0.051
- NP40-soluble protein abundance (concentration: 4mM): 0.935 ± 0.053
- NP40-soluble protein abundance (concentration: 6mM): 0.989 ± 0.08
- NP40-soluble protein abundance (concentration: 8mM): 0.982 ± 0.038
- NP40-soluble protein abundance (concentration: 10mM): 1.02 ± 0.054

Target: E7EUL7 and related entries (UniProt P28290)
- NP40-soluble protein abundance (concentration: 0.1mM): 1.11 ± 0.24
- NP40-soluble protein abundance (concentration: 0.5mM): 1.18 ± 0.27
- NP40-soluble protein abundance (concentration: 1mM): 1.14 ± 0.2
- NP40-soluble protein abundance (concentration: 2mM): 1.11 ± 0.062
- NP40-soluble protein abundance (concentration: 4mM): 1.32 ± 0.36
- NP40-soluble protein abundance (concentration: 6mM): 1.32 ± 0.37
- NP40-soluble protein abundance (concentration: 8mM): 1.45 ± 0.37
- NP40-soluble protein abundance (concentration: 10mM): 1.39 ± 0.28

Target: F8W8G5 and related entries (UniProt P10242)
- NP40-soluble protein abundance (concentration: 0.1mM): 1.02 ± 0.063
- NP40-soluble protein abundance (concentration: 0.5mM): 1.04 ± 0.077
- NP40-soluble protein abundance (concentration: 1mM): 1.08 ± 0.073
- NP40-soluble protein abundance (concentration: 2mM): 1.08 ± 0.086
- NP40-soluble protein abundance (concentration: 4mM): 1.12 ± 0.037
- NP40-soluble protein abundance (concentration: 6mM): 1.12 ± 0.1
- NP40-soluble protein abundance (concentration: 8mM): 1.15 ± 0.044
- NP40-soluble protein abundance (concentration: 10mM): 1.13 ± 0.051

Target: E9PGT1 and related entries (UniProt Q15631)
- NP40-soluble protein abundance (concentration: 0.1mM): 0.933 ± 0.018
- NP40-soluble protein abundance (concentration: 0.5mM): 0.965 ± 0.027
- NP40-soluble protein abundance (concentration: 1mM): 0.911 ± 0.035
- NP40-soluble protein abundance (concentration: 2mM): 0.909 ± 0.035
- NP40-soluble protein abundance (concentration: 4mM): 0.902 ± 0.037
- NP40-soluble protein abundance (concentration: 6mM): 0.895 ± 0.048
- NP40-soluble protein abundance (concentration: 8mM): 0.865 ± 0.058
- NP40-soluble protein abundance (concentration: 10mM): 0.905 ± 0.031

Target: F5GX09 and related entries (UniProt Q5HYJ3)
- NP40-soluble protein abundance (concentration: 0.1mM): 0.971 ± 0.1
- NP40-soluble protein abundance (concentration: 0.5mM): 0.966 ± 0.074
- NP40-soluble protein abundance (concentration: 1mM): 0.933 ± 0.083
- NP40-soluble protein abundance (concentration: 2mM): 0.913 ± 0.086
- NP40-soluble protein abundance (concentration: 4mM): 0.891 ± 0.08
- NP40-soluble protein abundance (concentration: 6mM): 0.897 ± 0.094
- NP40-soluble protein abundance (concentration: 8mM): 0.924 ± 0.092
- NP40-soluble protein abundance (concentration: 10mM): 0.961 ± 0.066

Target: F5GX19 and related entries (UniProt Q6IAA8)
- NP40-soluble protein abundance (concentration: 0.1mM): 0.996 ± 0.061
- NP40-soluble protein abundance (concentration: 0.5mM): 0.938 ± 0.074
- NP40-soluble protein abundance (concentration: 1mM): 1.1 ± 0.085
- NP40-soluble protein abundance (concentration: 2mM): 1.1 ± 0.091
- NP40-soluble protein abundance (concentration: 4mM): 1.09 ± 0.043
- NP40-soluble protein abundance (concentration: 6mM): 1.07 ± 0.09
- NP40-soluble protein abundance (concentration: 8mM): 1.05 ± 0.054
- NP40-soluble protein abundance (concentration: 10mM): 1.12 ± 0.04

Target: F5H4V9 and related entries (UniProt Q16342)
- NP40-soluble protein abundance (concentration: 0.1mM): 1.03 ± 0.092
- NP40-soluble protein abundance (concentration: 0.5mM): 1.06 ± 0.058
- NP40-soluble protein abundance (concentration: 1mM): 1.04 ± 0.079
- NP40-soluble protein abundance (concentration: 2mM): 1.11 ± 0.09
- NP40-soluble protein abundance (concentration: 4mM): 1.14 ± 0.1
- NP40-soluble protein abundance (concentration: 6mM): 1.17 ± 0.064
- NP40-soluble protein abundance (concentration: 8mM): 1.16 ± 0.07
- NP40-soluble protein abundance (concentration: 10mM): 1.21 ± 0.13

Target: E9PH64 and related entries (UniProt Q9Y6M9)
- NP40-soluble protein abundance (concentration: 0.1mM): 1.02 ± 0.14
- NP40-soluble protein abundance (concentration: 0.5mM): 0.987 ± 0.088
- NP40-soluble protein abundance (concentration: 1mM): 1.11 ± 0.14
- NP40-soluble protein abundance (concentration: 2mM): 1.11 ± 0.053
- NP40-soluble protein abundance (concentration: 4mM): 1.1 ± 0.086
- NP40-soluble protein abundance (concentration: 6mM): 1.23 ± 0.072
- NP40-soluble protein abundance (concentration: 8mM): 1.23 ± 0.11
- NP40-soluble protein abundance (concentration: 10mM): 1.34 ± 0.086

Target: G0XQ39 and related entries (UniProt Q13586)
- NP40-soluble protein abundance (concentration: 0.1mM): 0.932 ± 0.074
- NP40-soluble protein abundance (concentration: 0.5mM): 0.953 ± 0.07
- NP40-soluble protein abundance (concentration: 1mM): 0.948 ± 0.078
- NP40-soluble protein abundance (concentration: 2mM): 0.911 ± 0.073
- NP40-soluble protein abundance (concentration: 4mM): 0.911 ± 0.06
- NP40-soluble protein abundance (concentration: 6mM): 0.911 ± 0.07
- NP40-soluble protein abundance (concentration: 8mM): 0.961 ± 0.081
- NP40-soluble protein abundance (concentration: 10mM): 0.934 ± 0.082

Target: E7ERK9 and related entries (UniProt Q9UI10)
- NP40-soluble protein abundance (concentration: 0.1mM): 0.989 ± 0.017
- NP40-soluble protein abundance (concentration: 0.5mM): 1.03 ± 0.019
- NP40-soluble protein abundance (concentration: 1mM): 1.03 ± 0.067
- NP40-soluble protein abundance (concentration: 2mM): 1.01 ± 0.047
- NP40-soluble protein abundance (concentration: 4mM): 1.02 ± 0.09
- NP40-soluble protein abundance (concentration: 6mM): 1.03 ± 0.068
- NP40-soluble protein abundance (concentration: 8mM): 1.06 ± 0.083
- NP40-soluble protein abundance (concentration: 10mM): 1.05 ± 0.097

Target: E7EPM6 and related entries (UniProt P33121)
- NP40-soluble protein abundance (concentration: 0.1mM): 1.01 ± 0.024
- NP40-soluble protein abundance (concentration: 0.5mM): 1.02 ± 0.05
- NP40-soluble protein abundance (concentration: 1mM): 0.961 ± 0.014
- NP40-soluble protein abundance (concentration: 2mM): 0.976 ± 0.046
- NP40-soluble protein abundance (concentration: 4mM): 0.944 ± 0.052
- NP40-soluble protein abundance (concentration: 6mM): 0.92 ± 0.033
- NP40-soluble protein abundance (concentration: 8mM): 0.901 ± 0.019
- NP40-soluble protein abundance (concentration: 10mM): 0.89 ± 0.054
